From paper doi:10.1101/2024.08.01.605889 come the findings set out here.

Sequences of proteins named here, by UniProt entry; tags and fusion partners are left off.
UniProt P14635: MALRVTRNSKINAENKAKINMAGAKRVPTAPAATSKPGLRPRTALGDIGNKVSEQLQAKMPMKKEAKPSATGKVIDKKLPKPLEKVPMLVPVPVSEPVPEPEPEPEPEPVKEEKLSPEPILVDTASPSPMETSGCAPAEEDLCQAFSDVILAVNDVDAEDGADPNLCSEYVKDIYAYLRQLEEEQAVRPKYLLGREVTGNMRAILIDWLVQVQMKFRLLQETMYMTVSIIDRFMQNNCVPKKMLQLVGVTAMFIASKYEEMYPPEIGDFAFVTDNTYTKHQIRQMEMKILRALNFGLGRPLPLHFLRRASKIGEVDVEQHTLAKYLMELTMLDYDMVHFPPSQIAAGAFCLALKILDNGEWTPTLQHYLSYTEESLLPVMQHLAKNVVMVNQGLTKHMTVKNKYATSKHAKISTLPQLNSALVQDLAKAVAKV
UniProt P46527: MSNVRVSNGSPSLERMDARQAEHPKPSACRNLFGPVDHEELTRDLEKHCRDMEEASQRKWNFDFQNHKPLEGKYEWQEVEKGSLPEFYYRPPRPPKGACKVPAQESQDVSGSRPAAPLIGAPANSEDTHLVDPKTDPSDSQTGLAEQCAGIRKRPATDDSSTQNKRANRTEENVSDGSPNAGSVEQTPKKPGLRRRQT

These are yes or no findings as the source states them, for the method shown. Binding seen in cells or lysates may run through a third protein. These calls come from enrichment with a bait or labelling near it, and not all partners need be listed.

This assay addresses cyclin B1 (human (endogenous in NCI-H1048 and NCI-H446)) (UniProt P14635). Kind of assay: affinity purification with mass spectrometry.

Turning to p27^Kip1 (from UniProt P46527 1-198), the binding result was “binds”.
